From PMC9001639
No constants are given. Whether binding was seen depends on the method and setting. In cells and extracts the contact can be indirect. Tags and fused reporters may be left off the sequences shown.

Legend:
HA-NEDD9 (human) = target: T1, HA-NEDD9 (human) (UniProt Q14511); test: co-IP; HEK293 cells co-overexpressing HA-NEDD9 and GFP-HK1 or GFP-HK2, collected after 24 h; lysed in PTY buffer; Protein A/G plus agarose beads with antibody to HA or to the hexokinases (or IgG control), 500 ug lysate, overnight at 4 °C; western blot; cells with or without dasatinib (SRC inhibitor)
T1 sequence: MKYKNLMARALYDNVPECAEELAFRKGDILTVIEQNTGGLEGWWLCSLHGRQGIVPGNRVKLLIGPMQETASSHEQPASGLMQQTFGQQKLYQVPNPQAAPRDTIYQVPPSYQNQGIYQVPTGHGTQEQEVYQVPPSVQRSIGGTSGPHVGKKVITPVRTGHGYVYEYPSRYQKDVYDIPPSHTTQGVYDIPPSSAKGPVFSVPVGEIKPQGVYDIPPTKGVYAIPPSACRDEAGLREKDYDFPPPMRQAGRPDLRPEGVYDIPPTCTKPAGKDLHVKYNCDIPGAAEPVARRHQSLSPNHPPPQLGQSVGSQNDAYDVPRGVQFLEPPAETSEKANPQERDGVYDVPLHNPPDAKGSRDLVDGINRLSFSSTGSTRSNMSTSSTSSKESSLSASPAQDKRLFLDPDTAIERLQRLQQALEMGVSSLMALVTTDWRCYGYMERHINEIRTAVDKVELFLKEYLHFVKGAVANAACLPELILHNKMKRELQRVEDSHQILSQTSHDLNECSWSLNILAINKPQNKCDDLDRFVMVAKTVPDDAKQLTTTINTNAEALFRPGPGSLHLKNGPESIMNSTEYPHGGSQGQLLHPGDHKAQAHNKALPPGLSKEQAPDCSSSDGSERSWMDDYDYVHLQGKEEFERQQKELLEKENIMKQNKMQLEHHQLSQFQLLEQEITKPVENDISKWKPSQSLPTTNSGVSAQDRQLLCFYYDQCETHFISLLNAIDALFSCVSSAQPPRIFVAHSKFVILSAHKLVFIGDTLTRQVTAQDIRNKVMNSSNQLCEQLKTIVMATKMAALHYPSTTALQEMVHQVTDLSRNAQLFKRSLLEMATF

GFP-fused HK2 = target: T2, GFP-fused HK2 (UniProt P52789); test: as above
T2 sequence: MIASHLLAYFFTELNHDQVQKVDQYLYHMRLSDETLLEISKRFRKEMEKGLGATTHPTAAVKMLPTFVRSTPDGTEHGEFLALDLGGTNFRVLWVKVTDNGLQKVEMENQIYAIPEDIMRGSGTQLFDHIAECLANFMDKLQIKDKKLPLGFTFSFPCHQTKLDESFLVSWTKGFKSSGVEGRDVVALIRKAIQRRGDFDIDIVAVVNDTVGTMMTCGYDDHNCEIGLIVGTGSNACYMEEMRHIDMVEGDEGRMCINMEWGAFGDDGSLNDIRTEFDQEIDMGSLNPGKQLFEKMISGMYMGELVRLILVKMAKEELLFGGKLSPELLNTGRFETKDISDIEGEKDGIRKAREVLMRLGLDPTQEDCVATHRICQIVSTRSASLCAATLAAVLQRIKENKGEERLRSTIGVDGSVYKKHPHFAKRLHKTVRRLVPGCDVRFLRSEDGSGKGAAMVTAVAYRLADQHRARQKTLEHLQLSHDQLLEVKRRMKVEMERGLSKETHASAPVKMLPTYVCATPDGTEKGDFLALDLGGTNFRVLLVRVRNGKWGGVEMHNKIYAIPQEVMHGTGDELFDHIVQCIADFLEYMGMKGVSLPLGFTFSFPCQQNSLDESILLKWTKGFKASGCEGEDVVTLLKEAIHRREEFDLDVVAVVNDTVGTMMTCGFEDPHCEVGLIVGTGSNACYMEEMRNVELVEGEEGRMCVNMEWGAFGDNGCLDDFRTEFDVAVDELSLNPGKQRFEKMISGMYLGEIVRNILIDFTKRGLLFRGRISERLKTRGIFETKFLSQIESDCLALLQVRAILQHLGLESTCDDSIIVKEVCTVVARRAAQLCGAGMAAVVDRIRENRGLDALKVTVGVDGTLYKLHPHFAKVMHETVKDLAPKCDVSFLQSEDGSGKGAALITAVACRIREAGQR

B1: GFP-fused HK2 (enzyme, UniProt P52789 1-917)
chain: T2 sequence
HA-NEDD9 (human)
  binding: no binding

B2: HA-NEDD9 (protein, UniProt Q14511 1-834)
chain: T1 sequence
GFP-fused HK2
  binding: no binding
